The values that follow come from paper PMC6001375, “CLERK is a novel receptor kinase required for sensing of root-active CLE peptides in Arabidopsis” (Development (Cambridge, England), 2018).

In assay [1] the target is T1, CLE-… RECEPTOR KINASE (CLERK) ectodomain (Arabidopsis thaliana) (UniProt Q0WVM4).
T1 sequence: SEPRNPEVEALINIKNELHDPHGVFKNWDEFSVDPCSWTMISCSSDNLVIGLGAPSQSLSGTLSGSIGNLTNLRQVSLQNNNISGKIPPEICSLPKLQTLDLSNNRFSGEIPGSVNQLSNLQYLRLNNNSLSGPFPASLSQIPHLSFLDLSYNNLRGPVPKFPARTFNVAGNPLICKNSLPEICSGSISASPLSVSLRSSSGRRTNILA
In words: condition: 400 µM CLE45 titrated into 30 µM CLERK-ECD; ITC; Nano ITC, 25°C, 20 mM citrate (pH 5.0), 150 mM NaCl; peptide in the syringe, ectodomain in the cell: 400 µM CLE26 or CLE45 into 30 µM CLERK-ECD; 80 µM CLE9 into 13.8 µM BAM1-ECD; both purified.

Assay [2] deals with T2, BARELY ANY MERISTEM 1 (BAM1) ectodomain (Arabidopsis thaliana) (UniProt O49545).
T2 sequence: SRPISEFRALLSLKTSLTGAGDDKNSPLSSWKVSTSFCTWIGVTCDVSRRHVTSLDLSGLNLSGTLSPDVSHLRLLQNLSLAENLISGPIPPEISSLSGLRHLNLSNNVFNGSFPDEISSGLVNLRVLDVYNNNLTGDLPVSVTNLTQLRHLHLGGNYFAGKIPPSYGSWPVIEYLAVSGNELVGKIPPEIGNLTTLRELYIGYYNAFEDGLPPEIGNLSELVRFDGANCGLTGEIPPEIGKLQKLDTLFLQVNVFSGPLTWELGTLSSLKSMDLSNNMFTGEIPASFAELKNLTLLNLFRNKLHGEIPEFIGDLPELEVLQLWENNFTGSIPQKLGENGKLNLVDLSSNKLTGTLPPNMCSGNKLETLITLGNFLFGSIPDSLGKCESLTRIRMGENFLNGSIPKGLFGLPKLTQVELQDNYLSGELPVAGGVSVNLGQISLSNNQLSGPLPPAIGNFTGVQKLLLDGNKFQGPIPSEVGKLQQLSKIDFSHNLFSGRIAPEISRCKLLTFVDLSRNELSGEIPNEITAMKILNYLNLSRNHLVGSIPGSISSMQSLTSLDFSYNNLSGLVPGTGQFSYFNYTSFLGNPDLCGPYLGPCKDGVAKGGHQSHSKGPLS
In words: condition: 100 µg CLERK-ECD, equimolar BAM1-ECD, with 50 µM CLE9; SEC; analytical gel filtration, Superdex 200 Increase 10/300 GL, 20 mM citrate (pH 5.0), 150 mM NaCl; 100 µg of each NIK-ECD, CLERK-ECD or At5G63710-ECD mixed with equimolar BAM1-ECD, BAM3-ECD or PXY-ECD and 50 µM CLE9, CLE45 or CLE41 peptide, respectively; fractions on Coomassie-stained gels; both purified.

Assay [3] concerns the target T3, PHLOEM … WITH XYLEM (PXY) ectodomain (Arabidopsis thaliana) (UniProt Q9FII5).
T3 sequence: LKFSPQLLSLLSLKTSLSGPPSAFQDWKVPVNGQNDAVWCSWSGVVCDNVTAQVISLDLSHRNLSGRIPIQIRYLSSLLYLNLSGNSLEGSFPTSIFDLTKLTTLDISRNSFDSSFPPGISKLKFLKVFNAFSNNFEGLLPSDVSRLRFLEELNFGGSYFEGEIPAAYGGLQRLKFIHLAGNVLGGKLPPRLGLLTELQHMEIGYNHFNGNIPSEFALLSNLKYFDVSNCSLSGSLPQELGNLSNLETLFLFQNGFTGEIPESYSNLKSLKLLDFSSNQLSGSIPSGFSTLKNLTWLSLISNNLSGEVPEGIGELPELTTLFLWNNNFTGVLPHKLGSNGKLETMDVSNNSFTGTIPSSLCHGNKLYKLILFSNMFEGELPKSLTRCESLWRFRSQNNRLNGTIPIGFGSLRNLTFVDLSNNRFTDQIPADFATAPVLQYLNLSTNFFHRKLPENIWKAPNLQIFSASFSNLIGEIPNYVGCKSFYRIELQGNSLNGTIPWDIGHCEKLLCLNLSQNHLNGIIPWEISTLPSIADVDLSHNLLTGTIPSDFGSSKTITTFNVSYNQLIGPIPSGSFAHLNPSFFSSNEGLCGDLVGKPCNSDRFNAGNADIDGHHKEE
In words: condition: 100 µg CLERK-ECD, equimolar PXY-ECD, with 50 µM CLE41; SEC; analytical gel filtration, Superdex 200 Increase 10/300 GL, 20 mM citrate (pH 5.0), 150 mM NaCl; 100 µg of each NIK-ECD, CLERK-ECD or At5G63710-ECD mixed with equimolar BAM1-ECD, BAM3-ECD or PXY-ECD and 50 µM CLE9, CLE45 or CLE41 peptide, respectively; fractions on Coomassie-stained gels; both purified.

The target of assay [4] is T4, BARELY ANY MERISTEM 3 (BAM3) ectodomain (Arabidopsis thaliana) (UniProt O65440).
T4 sequence: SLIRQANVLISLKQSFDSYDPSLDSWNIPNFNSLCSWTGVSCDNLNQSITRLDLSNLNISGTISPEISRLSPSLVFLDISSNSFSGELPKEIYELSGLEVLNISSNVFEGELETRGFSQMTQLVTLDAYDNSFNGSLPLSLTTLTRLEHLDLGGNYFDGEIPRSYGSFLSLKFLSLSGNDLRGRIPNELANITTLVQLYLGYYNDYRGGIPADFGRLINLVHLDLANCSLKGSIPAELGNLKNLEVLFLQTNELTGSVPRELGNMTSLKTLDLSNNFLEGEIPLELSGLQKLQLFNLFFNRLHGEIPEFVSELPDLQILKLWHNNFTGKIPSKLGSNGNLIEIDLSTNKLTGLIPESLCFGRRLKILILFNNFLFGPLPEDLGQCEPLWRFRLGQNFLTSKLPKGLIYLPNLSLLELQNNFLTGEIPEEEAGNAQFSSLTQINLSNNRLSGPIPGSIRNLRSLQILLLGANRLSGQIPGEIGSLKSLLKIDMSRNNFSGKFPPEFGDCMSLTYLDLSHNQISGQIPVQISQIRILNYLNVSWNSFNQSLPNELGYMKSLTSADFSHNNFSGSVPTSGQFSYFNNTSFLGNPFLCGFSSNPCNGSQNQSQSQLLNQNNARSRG
In words: condition: 100 µg CLERK-ECD, equimolar BAM3-ECD, with 50 µM CLE45; SEC; analytical gel filtration, Superdex 200 Increase 10/300 GL, 20 mM citrate (pH 5.0), 150 mM NaCl; 100 µg of each NIK-ECD, CLERK-ECD or At5G63710-ECD mixed with equimolar BAM1-ECD, BAM3-ECD or PXY-ECD and 50 µM CLE9, CLE45 or CLE41 peptide, respectively; fractions on Coomassie-stained gels; both purified.

The target in assay [5] is T2, BARELY ANY MERISTEM 1 (BAM1) ectodomain (Arabidopsis thaliana). In words: condition: 100 µg At5G63710-ECD, equimolar BAM1-ECD, with 50 µM CLE9; SEC; analytical gel filtration, Superdex 200 Increase 10/300 GL, 20 mM citrate (pH 5.0), 150 mM NaCl; 100 µg of each NIK-ECD, CLERK-ECD or At5G63710-ECD mixed with equimolar BAM1-ECD, BAM3-ECD or PXY-ECD and 50 µM CLE9, CLE45 or CLE41 peptide, respectively; fractions on Coomassie-stained gels; both purified.

The target of assay [6] is T3, PHLOEM … WITH XYLEM (PXY) ectodomain (Arabidopsis thaliana). In words: condition: 100 µg At5G63710-ECD, equimolar PXY-ECD, with 50 µM CLE41; SEC; analytical gel filtration, Superdex 200 Increase 10/300 GL, 20 mM citrate (pH 5.0), 150 mM NaCl; 100 µg of each NIK-ECD, CLERK-ECD or At5G63710-ECD mixed with equimolar BAM1-ECD, BAM3-ECD or PXY-ECD and 50 µM CLE9, CLE45 or CLE41 peptide, respectively; fractions on Coomassie-stained gels; both purified.

Assay [7] concerns the target T4, BARELY ANY MERISTEM 3 (BAM3) ectodomain (Arabidopsis thaliana). In words: condition: 100 µg At5G63710-ECD, equimolar BAM3-ECD, with 50 µM CLE45; SEC; analytical gel filtration, Superdex 200 Increase 10/300 GL, 20 mM citrate (pH 5.0), 150 mM NaCl; 100 µg of each NIK-ECD, CLERK-ECD or At5G63710-ECD mixed with equimolar BAM1-ECD, BAM3-ECD or PXY-ECD and 50 µM CLE9, CLE45 or CLE41 peptide, respectively; fractions on Coomassie-stained gels; both purified.

For assay [8], the target named is T2, BARELY ANY MERISTEM 1 (BAM1) ectodomain (Arabidopsis thaliana). In words: condition: 100 µg NIK3-ECD, equimolar BAM1-ECD, with 50 µM CLE9; SEC; analytical gel filtration, Superdex 200 Increase 10/300 GL, 20 mM citrate (pH 5.0), 150 mM NaCl; 100 µg of each NIK-ECD, CLERK-ECD or At5G63710-ECD mixed with equimolar BAM1-ECD, BAM3-ECD or PXY-ECD and 50 µM CLE9, CLE45 or CLE41 peptide, respectively; fractions on Coomassie-stained gels; both purified.

Assay [9] has as its target T3, PHLOEM … WITH XYLEM (PXY) ectodomain (Arabidopsis thaliana). In words: condition: 100 µg NIK3-ECD, equimolar PXY-ECD, with 50 µM CLE41; SEC; analytical gel filtration, Superdex 200 Increase 10/300 GL, 20 mM citrate (pH 5.0), 150 mM NaCl; 100 µg of each NIK-ECD, CLERK-ECD or At5G63710-ECD mixed with equimolar BAM1-ECD, BAM3-ECD or PXY-ECD and 50 µM CLE9, CLE45 or CLE41 peptide, respectively; fractions on Coomassie-stained gels; both purified.

Assay [10] deals with T4, BARELY ANY MERISTEM 3 (BAM3) ectodomain (Arabidopsis thaliana). In words: condition: 100 µg NIK3-ECD, equimolar BAM3-ECD, with 50 µM CLE45; SEC; analytical gel filtration, Superdex 200 Increase 10/300 GL, 20 mM citrate (pH 5.0), 150 mM NaCl; 100 µg of each NIK-ECD, CLERK-ECD or At5G63710-ECD mixed with equimolar BAM1-ECD, BAM3-ECD or PXY-ECD and 50 µM CLE9, CLE45 or CLE41 peptide, respectively; fractions on Coomassie-stained gels; both purified.

These are yes or no findings as the source states them, for the method shown.

Consider RRVRRGSDPIHN [CLE45 peptide], for which, in assay [1], the binding entry is “no binding”.

B1: CLE-… RECEPTOR KINASE (CLERK) ectodomain (domain or fragment, UniProt Q0WVM4 28-236)
chain: T1 sequence
On to B1, for which the binding result in assay [2], in [3] and in assay [4] was “no binding” throughout.

B2: At5G63710 ectodomain (domain or fragment, UniProt Q8W4S5 51-224)
chain: DIEGGALLQLRDSLNDSSNRLKWTRDFVSPCYSWSYVTCRGQSVVALNLASSGFTGTLSPAITKLKFLVTLELQNNSLSGALPDSLGNMVNLQTLNLSVNSFSGSIPASWSQLSNLKHLDLSSNNLTGSIPTQFFSIPTFDFSGTQLICGKSLNQPCSSSSRLPVTSSKKKLRD
With B2, the binding entry in assay [5], in assay [6] and in [7] was “no binding” each time.

B3: NSP-… KINASE 3 (NIK3) ectodomain (domain or fragment, UniProt Q93ZS4 26-238)
chain: TLSPTGVNYEVTALVAVKNELNDPYKVLENWDVNSVDPCSWRMVSCTDGYVSSLDLPSQSLSGTLSPRIGNLTYLQSVVLQNNAITGPIPETIGRLEKLQSLDLSNNSFTGEIPASLGELKNLNYLRLNNNSLIGTCPESLSKIEGLTLVDISYNNLSGSLPKVSARTFKVIGNALICGPKAVSNCSAVPEPLTLPQDGPDESGTRTNGHHVA
Regarding B3, the binding result in assay [8], in [9] and in assay [10] was “no binding” each time.
